# Laboratory results as given in patent US20170247715A1.
# Results are given in words; binding and its absence hold for the method and conditions named. In cells and extracts the contact can be indirect. Here binding means that the protein was enriched with, or labelled near, the bait; the list need not be complete. Where a sequence is shown, tags or fusion partners need not be part of it.
# How the values were obtained:
# Experiment in all cases: tandem affinity purification (GS tag) from Arabidopsis cell suspension culture, mass spectrometry
# [1] = molecular target: PLDPT phospholipase (Arabidopsis thaliana)
# [2] = molecular target: a protein kinase
# [3] = molecular target: an alpha/beta hydrolase protein
# [4] = molecular target: Cytochrome bd ubiquinal oxidase (Arabidopsis thaliana)
binding [1],binding [2],binding [3],binding [4],Binder
binds,binds,binds,–,"N-terminally GS-tagged PIRIN4 (Arabidopsis thaliana Pirin-like protein At1g50590) (protein, not shown: large carriers) MPISEKSSATNTRLVVKKLFARQLHEGFGAVVRRSIGRFEFRYFDPFLVLDEFSVSAPAGFPDHPHRGFETVTYMLEGEILHEDCEGHKGVIREGGLQWMTAGKGIVHSEMPSSNSNGITHNKGLQLWINLSSRQKLVEPSYQEIESKDIAETEKDGVRVRVIAGEWNGVKSKICTRTPTMYLDFTLSPGSRISQPIPLHWNAFVYVLQGHGHFGDSKLQHSAAAAHHLLVLGLGGDMLEAWNGSDSGLPLRFILVAGEPIGEPMVQFGPFVMNTQEEIDETIDDFENFRNGFEKARHWKSQAASALGLF"
–,–,–,binds,"C-terminally GS-tagged PIRIN2 (Arabidopsis thaliana Pirin-like protein At2g43120) (protein, not shown: large carriers) MRAAINRANSLGGLFSFRFIRNIKSMSSSTSQDFVSRPVIKKVFAKLQKEGDGAVVRRGISRSEQKLLDPFLMLDEFSVSPPAGFPDHPHRGFETVTYVLEGGITHQDFKGHKGTIYAGDVQWMTAGRGIIHSEMPEEEVNKGLQLWINLSSNEKMIEPNYQELSHSDIPKAEQNGVEVKVIAGESMGIQSPVYTRTPTMFLDFTLQPGAQIHQNVPESWNAFAYILESGEGGGVFSSSNSSPIPAHSVVVFGPGNDGVSVWNKSSSKQLRFVLIAGEPIGEPVVQYGPFVMNTQAEIDMTIEDYHYGKNGFEMAKYWRSQ"
